The results are deposited in PubChem (AID504749; NCATS, 2011).

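A panel of P. falciparum strains inside erythrocytes is exposed to compounds for three days, then a DNA-binding dye reports the amount of parasite DNA.
Each compound was titrated across a series from about 0.000037 to 29 µM.
The number is the fitted AC50, the concentration giving a half-maximal change in signal; a lower value means higher potency, whether the curve shows a decrease or an increase.
Calls follow the curve class and fit quality: every row here is inconclusive, covering signal-raising curves and weak, poorly fitted, partial or highest-dose-only inhibition curves.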

Values are in µM.
All entries here are filed as inconclusive.
These entries are mostly ones the record files as inconclusive; other results of the assay are not listed here.
Potencies fitted to partial, single-point or poorly fitting curves are rough.
The first word of each remark tells which way the curve ran; it can be opposite to the aim of the assay.

* CCOC(=O)/C=C(C)/C=C/C=C(C)/C=C/c1c(C)cc(OC)c(C)c1C [TAB165] | fitted potency 10 µM (inhibitor, single point)
* CCOC(=O)/C=C(C)/C=C/C=C(C)/C=C/c1c(C)cc(OC)c(C)c1C [ATS95] | fitted potency 17.78 µM (inhibitor, single point)
* CCOC(=O)/C=C(C)/C=C/C=C(C)/C=C/c1c(C)cc(OC)c(C)c1C [AS120] | fitted potency 15.85 µM (inhibitor, single point)
* CCOC(=O)/C=C(C)/C=C/C=C(C)/C=C/c1c(C)cc(OC)c(C)c1C [TAB109] | fitted potency 17.78 µM (inhibitor, single point)
* CCOC(=O)/C=C(C)/C=C/C=C(C)/C=C/c1c(C)cc(OC)c(C)c1C [CP247] | fitted potency 11.22 µM (inhibitor, single point)
* CCOC(=O)/C=C(C)/C=C/C=C(C)/C=C/c1c(C)cc(OC)c(C)c1C [ATS189] | fitted potency 17.78 µM (inhibitor, single point)
* CCOC(=O)/C=C(C)/C=C/C=C(C)/C=C/c1c(C)cc(OC)c(C)c1C [DIV17] | fitted potency 19.01 µM (inhibitor, single point)
* Cc1c(O)cccc1C(=O)N[C@@H](CSc1ccccc1)[C@H](O)CN1C[C@H]2CCCC[C@H]2C[C@H]1C(=O)NC(C)(C)C [CP191] | fitted potency 17.78 µM (inhibitor, single point)
* Cc1c(O)cccc1C(=O)N[C@@H](CSc1ccccc1)[C@H](O)CN1C[C@H]2CCCC[C@H]2C[C@H]1C(=O)NC(C)(C)C [DIV17] | fitted potency 19.01 µM (inhibitor, single point)
* Cc1c(O)cccc1C(=O)N[C@@H](CSc1ccccc1)[C@H](O)CN1C[C@H]2CCCC[C@H]2C[C@H]1C(=O)NC(C)(C)C [JCK] | fitted potency 15.85 µM (inhibitor, single point)
* Cc1c(O)cccc1C(=O)N[C@@H](CSc1ccccc1)[C@H](O)CN1C[C@H]2CCCC[C@H]2C[C@H]1C(=O)NC(C)(C)C [ATS95] | fitted potency 17.78 µM (inhibitor, single point)
* Cc1c(O)cccc1C(=O)N[C@@H](CSc1ccccc1)[C@H](O)CN1C[C@H]2CCCC[C@H]2C[C@H]1C(=O)NC(C)(C)C [CP297] | fitted potency 13.46 µM (inhibitor, single point)
* Cc1c(O)cccc1C(=O)N[C@@H](CSc1ccccc1)[C@H](O)CN1C[C@H]2CCCC[C@H]2C[C@H]1C(=O)NC(C)(C)C [CP325] | fitted potency 13.46 µM (inhibitor, single point)
* Cc1c(O)cccc1C(=O)N[C@@H](CSc1ccccc1)[C@H](O)CN1C[C@H]2CCCC[C@H]2C[C@H]1C(=O)NC(C)(C)C [ATS189] | fitted potency 11.22 µM (inhibitor, single point)
* Cc1c(O)cccc1C(=O)N[C@@H](CSc1ccccc1)[C@H](O)CN1C[C@H]2CCCC[C@H]2C[C@H]1C(=O)NC(C)(C)C [CP237] | fitted potency 17.78 µM (inhibitor, single point)
* Cc1c(O)cccc1C(=O)N[C@@H](CSc1ccccc1)[C@H](O)CN1C[C@H]2CCCC[C@H]2C[C@H]1C(=O)NC(C)(C)C [CP315] | fitted potency 0.4256 µM (inhibitor, full curve, poor fit)
* Cc1c(O)cccc1C(=O)N[C@@H](CSc1ccccc1)[C@H](O)CN1C[C@H]2CCCC[C@H]2C[C@H]1C(=O)NC(C)(C)C [PC15] | fitted potency 11.22 µM (inhibitor, partial curve, poor fit)
* Cc1c(O)cccc1C(=O)N[C@@H](CSc1ccccc1)[C@H](O)CN1C[C@H]2CCCC[C@H]2C[C@H]1C(=O)NC(C)(C)C [CP286] | fitted potency 17.78 µM (inhibitor, single point)
* Cc1c(O)cccc1C(=O)N[C@@H](CSc1ccccc1)[C@H](O)CN1C[C@H]2CCCC[C@H]2C[C@H]1C(=O)NC(C)(C)C [CP215] | fitted potency 12 µM (inhibitor, single point)
* Cc1c(O)cccc1C(=O)N[C@@H](CSc1ccccc1)[C@H](O)CN1C[C@H]2CCCC[C@H]2C[C@H]1C(=O)NC(C)(C)C [CP291] | fitted potency 19.01 µM (inhibitor, single point)
* Cc1c(O)cccc1C(=O)N[C@@H](CSc1ccccc1)[C@H](O)CN1C[C@H]2CCCC[C@H]2C[C@H]1C(=O)NC(C)(C)C [CP203] | fitted potency 21.33 µM (inhibitor, partial curve, poor fit)
* Cc1c(O)cccc1C(=O)N[C@@H](CSc1ccccc1)[C@H](O)CN1C[C@H]2CCCC[C@H]2C[C@H]1C(=O)NC(C)(C)C [TAB109] | fitted potency 11.22 µM (inhibitor, single point)
* Cc1c(O)cccc1C(=O)N[C@@H](CSc1ccccc1)[C@H](O)CN1C[C@H]2CCCC[C@H]2C[C@H]1C(=O)NC(C)(C)C [CP201] | fitted potency 7.569 µM (inhibitor, partial curve, poor fit)
* Cc1c(O)cccc1C(=O)N[C@@H](CSc1ccccc1)[C@H](O)CN1C[C@H]2CCCC[C@H]2C[C@H]1C(=O)NC(C)(C)C [7G8] | fitted potency 5.012 µM (activator)

2 of the entries, repeated:

| structure | setting | fitted potency (µM) | curve as filed |
|---|---|---|---|
| `CCOC(=O)/C=C(C)/C=C/C=C(C)/C=C/c1c(C)cc(OC)c(C)c1C` | AS120 | 15.85 | inhibitor, single point |
| `Cc1c(O)cccc1C(=O)N[C@@H](CSc1ccccc1)[C@H](O)CN1C[C@H]2CCCC[C@H]2C[C@H]1C(=O)NC(C)(C)C` | CP191 | 17.78 | inhibitor, single point |